{"source": "PubChem BioAssay", "note": "Some of the results follow. These are further read-outs of the screen, such as a control signal, another cell line or another target. No call is given for them. Compounds called inactive in the main read-out are mostly missing here.", "data": [{"experiment": "Her2 expression decrease, cell viability multiplex – SKBR3 breast tumor cells, AlphaScreen, ATP viability, primary screen (AID 461);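 further: percent of carrier control wells set as 100% viability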", "conditions": "SKBR3 Her2 protein level, 18-24 h, measured here: SKBR3 viability, ATP luminescence, at 10 µM", "units": {"viability": "%"}, "values": [{"compound": "CCOc1cc(/C=N/n2cnnc2)cc(Br)c1O", "viability": 104}, {"compound": "COC(=O)c1[nH]c2c(c1C)C(=O)CC(c1cc(OC)ccc1OC)C2", "note": "(stereo unspecified)", "viability": 98.5}, {"compound": "COc1cccc(-c2csc(N3CCN(CC(=O)Nc4ccc5c(c4)OCO5)CC3)n2)c1", "viability": 106}, {"compound": "COc1ccc(Cl)cc1Nc1nc(NCCO)nc(N2CCCC2)n1", "viability": 62}, {"compound": "COCC(=O)Nc1c(C(=O)Nc2ccccc2OC)oc2ccccc12", "viability": 78}, {"compound": "COc1cc(C(=O)N2CCCC(c3nc(-c4cccs4)no3)C2)cc(OC)c1OC", "note": "(stereo unspecified)", "viability": 90.5}, {"compound": "CCC1CCCCN1c1nc(-c2ccncc2)nc2ccccc12", "note": "(stereo unspecified)", "viability": 76.5}, {"compound": "O=C(Nc1ncc(Cc2ccccc2)s1)C1CCCO1", "note": "(stereo unspecified)", "viability": 91.5}, {"compound": "Cc1ccc(F)cc1NC(=O)c1cccc2nccnc12", "viability": 91.5}, {"compound": "COc1ccccc1C(=O)Nc1c2c(nn1-c1cccc(C)c1C)CS(=O)(=O)C2", "viability": 50}, {"compound": "Cc1nn(-c2nc3ccccc3[nH]2)c(N)c1-c1ccccc1", "viability": 97}, {"compound": "COc1cc(NC2c3ccccc3C(=O)N2c2ccc(C)cn2)cc(OC)c1OC", "note": "(stereo unspecified)", "viability": 90.5}, {"compound": "C/C(=N\\O)C(=O)C(CN1CCCCC1)CN1CCCCC1", "viability": 116}, {"compound": "c1ccc2c(NC3CCCC3)nnc(NC3CCCC3)c2c1", "viability": 60}, {"compound": "CC1CCc2c(sc3c2C2=NS(=O)(=O)CCN2C=N3)C1", "note": "(stereo unspecified)", "viability": 88.5}, {"compound": "CN1CCN(CCCN2c3ccccc3Sc3ccc(Cl)cc32)CC1", "viability": 25}, {"compound": "COC(=O)c1ccc(CSc2ncnc3c2nnn3-c2ccc(OC)cc2)o1", "viability": 87.5}, {"compound": "Cc1ccc(C)c(N2CCN(CCCNC(=O)Cn3cc4c(n3)CCCCC4)CC2)c1", "viability": 42}, {"compound": "Cc1cc(=O)oc2cc(OCC#N)ccc12", "viability": 112}, {"compound": "Cc1cc(C)n2c(SCC(=O)Nc3cc(C)on3)nnc2n1", "viability": 91.5}, {"compound": "Cc1ccc(-c2cc(C(F)F)n3ncc(C(=O)N4CCN(c5ccccn5)CC4)c3n2)cc1", "viability": 99.5}, {"compound": "O=C(Nc1ccc2c(c1)nc1n2CCN(Cc2ccccc2)C1)c1cccs1", "viability": 76.5}, {"compound": "CCCNS(=O)(=O)c1ccc(OCC(=O)Nc2ccccc2F)cc1", "viability": 96.5}, {"compound": "COc1ccc(NC(=O)c2oc3ccccc3c2NC(=O)c2ccco2)cc1", "viability": 90}, {"compound": "Cc1ccc(Cl)cc1N1CCN(C(=O)CN2C(=O)c3cccc4cccc2c34)CC1", "viability": 94.5}, {"compound": "COc1ccc(CCN2CCC(Nc3nc4ccccc4n3Cc3ccc(F)cc3)CC2)cc1", "viability": 56.5}, {"compound": "CNCCC=C1c2ccccc2CCc2ccccc21", "viability": 23}, {"compound": "CCCCNC(=O)CSc1nc2ccc(N3CCOCC3)cc2c(=O)n1CCc1ccccc1", "viability": 95.5}, {"compound": "C/C(Cl)=C\\Cn1c(NCCc2ccccc2)nc2c1c(=O)n(C)c(=O)n2C", "viability": 86}, {"compound": "CN1CCN(S(=O)(=O)c2ccc(NC(=O)Nc3cccc(Cl)c3)cc2)CC1", "viability": 96}, {"compound": "Cn1nc(CC(=O)Nc2ccc(N3CCN(C(=O)OC(C)(C)C)CC3)cc2)c2ccccc2c1=O", "viability": 84}, {"compound": "CCOc1ccccc1NC(=O)CCSc1nc2n[nH]c(C)c2c(=N)n1-c1ccccc1Cl", "viability": 56.5}, {"compound": "CCOc1ccccc1CN(Cc1ccco1)S(=O)(=O)c1ccc(-n2cnnn2)c(OC)c1", "viability": 82.5}, {"compound": "O=C(Nc1ccc(N2CCOCC2)cc1)Nc1ccc2nc(-c3ccco3)c(-c3ccco3)nc2c1", "viability": 71.5}, {"compound": "O=C(CC(SCCO)c1ccc2c(c1)OCO2)c1ccco1", "note": "(stereo unspecified)", "viability": 77.5}, {"compound": "Cc1ccc2c(c1)C1CCCC3C1N2CC(=O)N3Cc1ccccc1", "note": "(stereo unspecified)", "viability": 117}]}]}
